From PMC7053342 come the findings set out here.

By UniProt entry, the sequences of proteins in these tests, tags left out.
UniProt P01106: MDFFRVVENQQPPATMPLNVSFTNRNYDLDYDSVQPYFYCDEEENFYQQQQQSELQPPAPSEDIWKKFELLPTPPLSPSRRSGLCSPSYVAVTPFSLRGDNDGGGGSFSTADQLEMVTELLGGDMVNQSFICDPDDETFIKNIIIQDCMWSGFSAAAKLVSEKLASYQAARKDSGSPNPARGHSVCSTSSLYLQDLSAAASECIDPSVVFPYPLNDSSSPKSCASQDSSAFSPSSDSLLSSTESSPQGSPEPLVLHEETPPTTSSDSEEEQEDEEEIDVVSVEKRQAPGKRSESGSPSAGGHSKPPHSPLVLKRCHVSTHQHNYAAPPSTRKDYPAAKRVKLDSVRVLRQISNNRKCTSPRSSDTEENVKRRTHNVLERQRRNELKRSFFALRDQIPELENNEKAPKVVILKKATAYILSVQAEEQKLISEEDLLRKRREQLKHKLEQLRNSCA
UniProt Q09472: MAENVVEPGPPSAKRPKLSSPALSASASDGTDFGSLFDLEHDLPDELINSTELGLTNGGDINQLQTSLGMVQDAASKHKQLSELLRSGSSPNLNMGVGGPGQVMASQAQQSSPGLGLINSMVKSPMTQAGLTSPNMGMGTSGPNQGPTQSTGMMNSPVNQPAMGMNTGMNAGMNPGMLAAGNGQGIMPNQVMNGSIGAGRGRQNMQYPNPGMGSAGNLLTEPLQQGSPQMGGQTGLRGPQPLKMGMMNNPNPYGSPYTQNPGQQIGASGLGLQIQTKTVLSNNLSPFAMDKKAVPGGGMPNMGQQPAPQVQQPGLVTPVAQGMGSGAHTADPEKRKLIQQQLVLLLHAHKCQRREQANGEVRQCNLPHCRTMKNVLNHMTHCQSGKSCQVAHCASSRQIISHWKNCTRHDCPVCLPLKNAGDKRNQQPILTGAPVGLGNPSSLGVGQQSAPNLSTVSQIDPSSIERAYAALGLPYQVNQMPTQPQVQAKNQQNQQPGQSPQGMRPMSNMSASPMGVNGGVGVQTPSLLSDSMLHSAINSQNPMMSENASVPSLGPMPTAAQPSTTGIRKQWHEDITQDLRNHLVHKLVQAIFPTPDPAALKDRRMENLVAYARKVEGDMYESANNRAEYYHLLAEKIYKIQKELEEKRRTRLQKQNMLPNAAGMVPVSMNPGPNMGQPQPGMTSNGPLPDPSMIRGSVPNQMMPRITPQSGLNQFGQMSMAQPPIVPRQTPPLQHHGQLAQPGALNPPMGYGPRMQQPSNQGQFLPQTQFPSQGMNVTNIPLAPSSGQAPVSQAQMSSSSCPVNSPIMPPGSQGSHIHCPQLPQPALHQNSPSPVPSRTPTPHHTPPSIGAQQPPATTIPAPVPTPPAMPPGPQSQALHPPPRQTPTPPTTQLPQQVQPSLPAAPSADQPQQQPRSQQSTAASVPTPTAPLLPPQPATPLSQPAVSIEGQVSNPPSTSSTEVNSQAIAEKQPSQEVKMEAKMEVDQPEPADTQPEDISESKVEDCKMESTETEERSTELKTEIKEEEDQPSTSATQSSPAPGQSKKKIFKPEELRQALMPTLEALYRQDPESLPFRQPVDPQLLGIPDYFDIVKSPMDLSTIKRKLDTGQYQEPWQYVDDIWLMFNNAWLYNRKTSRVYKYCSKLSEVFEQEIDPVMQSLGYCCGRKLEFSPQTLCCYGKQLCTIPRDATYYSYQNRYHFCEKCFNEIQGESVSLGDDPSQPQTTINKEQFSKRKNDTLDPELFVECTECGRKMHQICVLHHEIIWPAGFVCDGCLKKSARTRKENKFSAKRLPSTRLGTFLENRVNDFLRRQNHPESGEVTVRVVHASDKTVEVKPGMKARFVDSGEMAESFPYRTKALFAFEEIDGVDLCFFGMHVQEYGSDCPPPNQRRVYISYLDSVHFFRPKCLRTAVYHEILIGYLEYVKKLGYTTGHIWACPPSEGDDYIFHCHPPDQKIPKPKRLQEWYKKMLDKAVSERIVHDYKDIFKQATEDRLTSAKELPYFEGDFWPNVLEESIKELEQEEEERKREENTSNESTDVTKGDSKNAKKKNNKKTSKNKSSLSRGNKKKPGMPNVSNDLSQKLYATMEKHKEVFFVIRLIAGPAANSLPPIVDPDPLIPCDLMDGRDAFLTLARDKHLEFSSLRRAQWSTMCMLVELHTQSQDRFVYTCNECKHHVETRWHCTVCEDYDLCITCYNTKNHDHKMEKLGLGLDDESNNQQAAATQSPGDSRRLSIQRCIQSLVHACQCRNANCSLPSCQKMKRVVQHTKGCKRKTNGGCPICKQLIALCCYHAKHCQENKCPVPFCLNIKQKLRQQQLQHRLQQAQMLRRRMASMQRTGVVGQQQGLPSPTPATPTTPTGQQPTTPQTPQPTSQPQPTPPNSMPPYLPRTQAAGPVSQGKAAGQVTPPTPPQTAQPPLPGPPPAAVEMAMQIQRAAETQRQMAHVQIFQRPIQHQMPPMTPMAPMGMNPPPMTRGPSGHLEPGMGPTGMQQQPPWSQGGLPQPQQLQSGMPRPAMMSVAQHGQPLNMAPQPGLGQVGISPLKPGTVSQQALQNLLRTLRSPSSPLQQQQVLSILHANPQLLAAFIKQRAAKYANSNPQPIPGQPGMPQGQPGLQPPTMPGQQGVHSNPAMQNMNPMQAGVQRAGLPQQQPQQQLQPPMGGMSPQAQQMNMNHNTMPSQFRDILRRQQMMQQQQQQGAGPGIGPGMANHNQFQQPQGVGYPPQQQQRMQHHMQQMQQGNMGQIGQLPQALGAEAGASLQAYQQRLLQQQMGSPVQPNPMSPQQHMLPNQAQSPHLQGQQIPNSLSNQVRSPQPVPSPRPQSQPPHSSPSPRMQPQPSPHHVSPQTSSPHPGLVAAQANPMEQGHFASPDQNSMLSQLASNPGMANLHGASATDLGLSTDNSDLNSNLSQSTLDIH

These are yes or no findings as the source states them, for the method shown. Binding seen in cells or lysates may run through a third protein. These calls come from enrichment with a bait or labelling near it, and not all partners need be listed.

This assay deals with 2×Flag-3×HA-c-Myc (UniProt P01106). Briefly: affinity purification with mass spectrometry; HT29 cells expressing pCDNA3-2×Flag-3×HA-c-Myc (empty vector as control), RIPA lysate; anti-Flag agarose 4°C overnight, Flag peptide elution, then anti-HA agarose 4°C overnight; SDS-PAGE, silver staining, bands digested with trypsin and identified by mass spectrometry.

Turning to p300 (from UniProt Q09472 1-2414), the binding entry is on record as “binds”.
